Test results as given in article PMC8140157, “RTEL1 influences the abundance and localization of TERRA RNA” (Nature Communications, 2020).
For some of these results: Negatives hold for the conditions tested. At least one verdict was read from the data and is not stated in words by the source. Where a protein sequence is shown, tags need not be part of it. For some of these results: The exact form of at least one protein or probe is not confirmed. For some of these results: The comparison behind a weaker result is the experiment's own reference, which may not be listed here.

Assays:
RTEL1∆762 (human) = tested on: T1, RTEL1∆762 (human); experiment: EMSA; conditions: 300 mM KCl (not acutely salt sensitive); 20 mM Tris pH 7.5, 50 mM KCl, 0.5 mM TCEP, 0.5 mM MgCl2, 10% glycerol, 0.1% IGEPAL, room temperature 30 min; oligos refolded in 10 mM Tris pH 7.5, 100 mM KCl; recombinant protein; residues 762-1300; protein details: 6xHis; label: 5' fluorescein
T1 sequence (looked up): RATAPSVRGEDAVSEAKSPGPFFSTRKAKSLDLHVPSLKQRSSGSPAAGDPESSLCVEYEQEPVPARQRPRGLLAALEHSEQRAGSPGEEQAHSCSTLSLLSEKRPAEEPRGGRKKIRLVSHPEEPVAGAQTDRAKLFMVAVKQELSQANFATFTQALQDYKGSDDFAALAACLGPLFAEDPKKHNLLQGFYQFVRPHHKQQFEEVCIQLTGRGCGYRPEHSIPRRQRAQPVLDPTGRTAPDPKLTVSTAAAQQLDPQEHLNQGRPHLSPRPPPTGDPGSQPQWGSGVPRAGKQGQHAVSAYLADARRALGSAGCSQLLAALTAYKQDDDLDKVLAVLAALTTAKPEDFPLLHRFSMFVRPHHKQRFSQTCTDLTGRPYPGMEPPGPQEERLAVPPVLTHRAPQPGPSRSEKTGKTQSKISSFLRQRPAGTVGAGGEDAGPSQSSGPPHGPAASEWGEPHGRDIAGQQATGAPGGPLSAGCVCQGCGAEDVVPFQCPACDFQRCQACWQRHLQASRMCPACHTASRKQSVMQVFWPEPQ

RTEL1∆762-1097 (human) = tested on: T2, RTEL1∆762-1097 (human); experiment: EMSA; conditions: 300 mM KCl (acutely salt sensitive vs 150 mM); 20 mM Tris pH 7.5, 50 mM KCl, 0.5 mM TCEP, 0.5 mM MgCl2, 10% glycerol, 0.1% IGEPAL, room temperature 30 min; oligos refolded in 10 mM Tris pH 7.5, 100 mM KCl; recombinant protein; residues 762-1097; protein details: 6xHis; label: 5' fluorescein
T2 sequence (looked up): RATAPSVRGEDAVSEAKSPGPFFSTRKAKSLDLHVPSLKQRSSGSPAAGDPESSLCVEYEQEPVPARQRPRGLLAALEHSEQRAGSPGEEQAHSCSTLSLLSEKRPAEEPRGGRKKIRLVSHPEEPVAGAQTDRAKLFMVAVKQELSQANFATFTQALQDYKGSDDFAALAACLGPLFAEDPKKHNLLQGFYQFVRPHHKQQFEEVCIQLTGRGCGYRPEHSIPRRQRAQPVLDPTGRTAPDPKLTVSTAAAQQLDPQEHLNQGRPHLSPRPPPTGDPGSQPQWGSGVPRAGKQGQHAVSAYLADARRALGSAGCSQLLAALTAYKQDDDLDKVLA

RTEL1∆1143 (human) = tested on: T3, RTEL1∆1143 (human); experiment: fluorescence anisotropy; conditions: direct binding, no binding signal; 20 mM Tris pH 7.5, 50 mM KCl, 0.5 mM TCEP, 0.5 mM MgCl2, 10% glycerol, 0.1% IGEPAL, room temperature 30 min; oligos refolded in 10 mM Tris pH 7.5, 100 mM KCl; recombinant protein; residues 1143-1300; protein details: 6xHis; label: 5' fluorescein
T3 sequence (looked up): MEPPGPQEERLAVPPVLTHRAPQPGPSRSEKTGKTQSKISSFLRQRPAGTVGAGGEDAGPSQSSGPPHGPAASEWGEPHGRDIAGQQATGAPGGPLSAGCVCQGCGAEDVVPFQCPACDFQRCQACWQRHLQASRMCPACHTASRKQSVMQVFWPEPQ

Row | Sequence | binding result (RTEL1∆762 (human)) | binding result (RTEL1∆762-1097 (human)) | binding result (RTEL1∆1143 (human))
1 | UUAGGGUUAGGGUUAGGGUUAGGG [TERRA (FAM), folded in KCl] | binds | binds more weakly | no binding
2 | UUACCGUUACCGUUACCGUUACCG [TERRA-MUT (FAM)] |  |  | no binding
